{
  "source": "PubChem BioAssay (NCATS)",
  "key": {"[1]": {"test": "Cell Viability - LYMP2-005 (AID 967); further: potency means the concentration at half of the fitted maximal effect", "conditions": "LYMP2-005 lymphoblastoid cell viability; series mostly up to 92.2 µM", "in_short": "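Human lymphoblastoid LYMP2-005 cells, 2,500 per well in complete medium, rested 5 h at 37C then compound-treated 24 h at 37C. Intracellular ATP read by CellTiter-Glo luminescence after 30 min at room temperature; AC50 from Hill-equation fits of concentration-response data.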"}, "[2]": {"test": "Cell Viability - LYMP2-009 (AID 968); further: potency means the concentration at half of the fitted maximal effect; nearly all actives have a fitted effect of over 55% in size", "conditions": "LYMP2-009 lymphoblastoid cell viability; series mostly up to 92.2 µM"}, "[3]": {"test": "Cell Viability - LYMP2-013 (AID 970); further: potency means the concentration at half of the fitted maximal effect; nearly all actives have a fitted effect of over 55% in size", "conditions": "LYMP2-013 lymphoblastoid cells viability", "in_short": "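Human lymphoblastoid cells, 2500/well, were preincubated 5 hr at 37 C, then treated with compounds for 24 hr at 37 C in complete medium. Intracellular ATP was read by CellTiter-Glo luminescence; AC50 from Hill-equation fits of concentration-response data.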"}, "[4]": {"test": "Cell Viability - LYMP2-017 (AID 972); further: potency means the concentration at half of the fitted maximal effect; nearly all actives have a fitted effect of over 55% in size", "conditions": "LYMP2-017 lymphoblastoid cell viability", "in_short": "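Human lymphoblastoid cells (2500/well) were seeded in complete medium, held 5 hr at 37 C, then exposed to compounds for 24 hr at 37 C. Intracellular ATP was read by CellTiter-Glo luminescence after 30 min at room temperature, with AC50 values from Hill-equation fits.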"}, "[5]": {"test": "Cell Viability - LYMP2-019 (AID 973); further: potency means the concentration at half of the fitted maximal effect; nearly all actives have a fitted effect of over 55% in size", "conditions": "LYMP2-019 lymphoblastoid cell line viability; series mostly up to 92.2 µM", "in_short": "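Human lymphoblastoid cells were seeded at 2500 cells/well, preincubated 5 hr at 37 C, then exposed to compounds for 24 hr at 37 C in complete medium. Intracellular ATP was measured by CellTiter-Glo luminescence; AC50 from Hill fits.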"}, "[6]": {"test": "Cell Viability - LYMP2-021 (AID 974)", "conditions": "LYMP2-021 lymphoblastoid cells viability; series mostly up to 92.2 µM", "in_short": "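Human lymphoblastoid cells (2500/well) were preincubated 5 hr at 37 C, then exposed to compounds for 24 hr at 37 C in complete medium. Intracellular ATP was read by CellTiter-Glo luminescence; AC50 came from Hill-equation fits of concentration-response data.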"}, "[7]": {"test": "Cell Viability - LYMP2-006 (AID 978); further: potency means the concentration at half of the fitted maximal effect; nearly all actives have a fitted effect of over 60% in size", "conditions": "LYMP2-006 lymphoblastoid cell viability, qHTS", "in_short": "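Human lymphoblastoid cells (LYMP2-006), 2500/well in complete medium, were treated with compound for 24 hr at 37 C. Cellular ATP was read by CellTiter-Glo luminescence after 30 min, and AC50 values came from Hill-equation fits of concentration-response data.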"}, "[8]": {"test": "Cell Viability - LYMP2-007 (AID 979);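 further: potency means the concentration at half of the fitted maximal effect; cells exposed to compound for 24 h before reading; nearly all actives have a fitted effect of over 60% in size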", "conditions": "LYMP2-007 lymphoblastoid cell viability; series mostly up to 92.2 µM", "in_short": "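Human lymphoblastoid cells (2500/well) were plated in complete medium, incubated 5 hr at 37 C, then exposed to compounds for 24 hr at 37 C. Intracellular ATP was read by CellTiter-Glo luminescence after 30 min at room temperature; AC50 from Hill fits.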"}, "[9]": {"test": "Cell Viability - LYMP2-008 (AID 980); further: potency means the concentration at half of the fitted maximal effect; nearly all actives have a fitted effect of over 60% in size", "conditions": "LYMP2-008 lymphoblastoid cell viability, qHTS; series mostly up to 92.2 µM", "in_short": "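Human lymphoblastoid cells (2500/well) were plated, held 5 hr at 37 C, then exposed to compounds for 24 hr at 37 C in complete medium. Intracellular ATP was read by CellTiter-Glo luminescence; AC50 from Hill-fitted concentration-response.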"}, "[10]": {"test": "Cell Viability - LYMP2-010 (AID 981)", "conditions": "LYMP2-010 lymphoblastoid cell viability, qHTS; series mostly up to 92.2 µM", "in_short": "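Human lymphoblastoid LYMP2-010 cells (2500/well) were preincubated 5 hr at 37 C, then exposed to compounds for 24 hr at 37 C in complete medium. Intracellular ATP was measured by CellTiter-Glo luminescence after 30 min at room temperature; AC50 from Hill-fitted concentration-response.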"}, "[11]": {"test": "Cell Viability - LYMP2-012 (AID 982)", "conditions": "LYMP2-012 lymphoblastoid cell viability qHTS; series mostly up to 92.2 µM"}, "[12]": {"test": "Cell Viability - LYMP2-014 (AID 983); further: potency means the concentration at half of the fitted maximal effect; nearly all actives have a fitted effect of over 50% in size", "conditions": "LYMP2-014 lymphoblastoid cells, viability qHTS; series mostly up to 92.2 µM", "in_short": "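Human lymphoblastoid cells (2500/well) were pre-incubated 5 hr at 37 C, then exposed to compounds in complete medium for 24 hr at 37 C. Intracellular ATP was read by CellTiter-Glo luminescence after 30 min at room temperature; AC50 from Hill fits.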"}, "[13]": {"test": "Cell Viability - LYMP2-016 (AID 984)", "conditions": "LYMP2-016 lymphoblastoid cell viability, qHTS; series mostly up to 92.2 µM", "in_short": "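Human lymphoblastoid LYMP2-016 cells, 2500 per well, treated with compounds for 24 h at 37 C. Viability read as intracellular ATP by CellTiter-Glo luminescence after 30 min at room temperature; AC50 from Hill fits of concentration-response.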"}, "[14]": {"test": "Cell Viability - LYMP2-018 (AID 985);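 further: potency means the concentration at half of the fitted maximal effect; compound exposure lasted 24 hr at 37 °C; nearly all actives have a fitted effect of over 50% in size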", "conditions": "LYMP2-018 lymphoblastoid cells, viability (qHTS)", "in_short": "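Human lymphoblastoid cells (2500/well) were pre-incubated 5 hr at 37 C, then exposed to compounds for 24 hr at 37 C in complete medium. Viability was read as intracellular ATP by CellTiter-Glo luminescence; AC50 values came from Hill-equation fits.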"}, "[15]": {"test": "Cell Viability - LYMP2-020 (AID 986)", "conditions": "series mostly up to 92.2 µM", "in_short": "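Human lymphoblastoid cells, 2500/well, were pre-incubated 5 hr at 37 C, then exposed to compounds for 24 hr at 37 C in complete medium. Intracellular ATP was read by CellTiter-Glo luminescence, and AC50 was derived by Hill fitting of concentration-response data.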"}, "[16]": {"test": "Cell Viability - LYMP2-022 (AID 987)", "conditions": "LYMP2-022 lymphoblastoid cell viability", "in_short": "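Human lymphoblastoid cells, 2500/well, preincubated 5 hr at 37 C, then exposed to compounds over a concentration range for 24 hr at 37 C in complete medium. Viability read as intracellular ATP by CellTiter-Glo luminescence after 30 min at room temperature; AC50 from Hill fits.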"}, "[17]": {"test": "Cell Viability - LYMP2-026 (AID 989); further: potency means the concentration at half of the fitted maximal effect; nearly all actives have a fitted effect of over 50% in size", "conditions": "LYMP2-026 lymphoblastoid cell viability, qHTS; series mostly up to 92.2 µM", "in_short": "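Human lymphoblastoid cells (2500/well) in complete medium were preincubated 5 hr at 37 C, then exposed to compounds for 24 hr at 37 C. Cellular ATP was read by CellTiter-Glo luminescence; AC50 from Hill-equation fits of concentration-response data.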"}, "[18]": {"test": "qHTS of pediatric cancer cell lines to identify multiple opportunities for drug repurposing: Confirmatory screen for control Hh wild type fibroblast cells (AID 1347121); further: nearly all actives have a fitted effect of over 70% in size", "conditions": "viability qHTS; series mostly up to 45.9 µM", "in_short": "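Cells (500-1,000/well) rested 5 h, then received compounds for 48 h; metabolically active cells were measured by CellTiter-Glo luminescence. Final concentrations spanned up to 46 µM (MIPE, 11-point) or 0.59 nM-46 µM (NPC, 8-point) in primary screens, 11-point in follow-ups.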"}, "[19]": {"test": "Confirmatory screen NINDS Rhodamine qHTS for Zika virus inhibitors (AID 1347161);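 further: purified Zika NS2B-NS3 protease with linked NS2B cofactor domain and Rhodamine110 peptide substrate; nearly all actives have a fitted effect of over 60% in size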", "conditions": "purified enzyme assay, Rhodamine110 substrate fluorescence, 15 min; series mostly up to 114 µM", "in_short": "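Percent inhibition, normalized to uninhibited and enzyme-free controls, is fitted to a 4-parameter Hill equation. Fluorescence change comes from a 15-min cleavage of 1.5 microM bis-peptide Rhodamine110 substrate by 25 nM linked NS2B-NS3 at room temperature.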"}, "[20]": {"test": "NCATS anti-infectives library activity on the primary C. elegans qHTS viability assay (AID 1745855; calls by dose curve)", "conditions": "C. elegans worm area imaging, day 7; series mostly up to 41.8 µM", "in_short": "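Viability is taken from GFP fluorescence of PE254-GFP-FLuc C. elegans imaged by laser cytometry over 7 days. Ten L1 worms per well grow at 21 °C on TOP10 E. coli capsules with titrated compound; levamisole marks toxicity.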"}},
  "note": "The inconclusive results got no clear call from the source; some entries with a clear call stand among them for comparison. For some assays here: A potency beside an inconclusive call is a rough fit, not a confirmed value. Calls of active or inactive are those of the source. Unless noted, the call rests on the fitted dose curve; in most records, active means well fitted curve in the direction sought with a large enough effect; inconclusive means small, poorly fitted or top-dose-only effect, or another doubt; inactive means no such curve, though single readings can be large; an effect the other way counts as inactive or inconclusive.",
  "data": [
    {"smiles": "COc1ccc2cc3[n+](cc2c1OC)CCc1cc2c(cc1-3)OCO2", "values": [
      {"measurement": "Potency", "setting": "[1]", "value": "inconclusive: 31.6 µM [cytotoxic, partial curve, poor fit]"},
      {"measurement": "Potency", "setting": "[2]", "value": "inconclusive: 50.1 µM [cytotoxic, partial curve]"},
      {"measurement": "Potency", "setting": "[3]", "value": "inconclusive: 79.4 µM [cytotoxic, single point]"},
      {"measurement": "Potency", "setting": "[4]", "value": "inconclusive: 39.8 µM [cytotoxic, partial curve]"},
      {"measurement": "Potency", "setting": "[5]", "value": "inconclusive: 39.8 µM [cytotoxic, partial curve]"},
      {"measurement": "Potency", "setting": "[6]", "value": "inconclusive: 79.4 µM [cytotoxic, single point]"},
      {"measurement": "Potency", "setting": "[7]", "value": "inconclusive: 39.8 µM [cytotoxic, partial curve, poor fit]"},
      {"measurement": "Potency", "setting": "[8]", "value": "inconclusive: 39.8 µM [cytotoxic, partial curve]"},
      {"measurement": "Potency", "setting": "[9]", "value": "inconclusive: 39.8 µM [cytotoxic, partial curve]"},
      {"measurement": "Potency", "setting": "[10]", "value": "inconclusive: 39.8 µM [cytotoxic, partial curve]"},
      {"measurement": "Potency", "setting": "[11]", "value": "inconclusive: 39.8 µM [cytotoxic, partial curve]"},
      {"measurement": "Potency", "setting": "[12]", "value": "inconclusive: 39.8 µM [cytotoxic, partial curve, poor fit]"},
      {"measurement": "Potency", "setting": "[13]", "value": "inconclusive: 50.1 µM [cytotoxic, partial curve]"},
      {"measurement": "Potency", "setting": "[14]", "value": "inconclusive: 31.6 µM [cytotoxic, partial curve]"},
      {"measurement": "Potency", "setting": "[15]", "value": "inconclusive: 50.1 µM [cytotoxic, partial curve]"},
      {"measurement": "Potency", "setting": "[16]", "value": "active: 31.6 µM"},
      {"measurement": "Potency", "setting": "[17]", "value": "inconclusive: 63.1 µM [cytotoxic, partial curve, poor fit]"}
    ]},
    {"smiles": "CCc1c2c(nc3ccc(O)cc13)-c1cc3c(c(=O)n1C2)COC(=O)[C@]3(O)CC", "values": [
      {"measurement": "Potency", "setting": "[18]", "value": "inactive"},
      {"measurement": "Potency", "setting": "[19]", "value": "inactive"}
    ]},
    {"smiles": "OC[C@H]1O[C@@H](Oc2ccc(O)cc2)[C@H](O)[C@@H](O)[C@@H]1O", "values": [
      {"measurement": "Potency", "setting": "[20]", "value": "inactive"}
    ]}
  ]
}
